PubChem BioAssay AID1259254 | NCATS | 2017

Test: 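Finding genes that stop cells copying their DNA twice in one cycle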 (primary screen)
Cell system: human HCT116 colorectal cancer cells
Reagent: single siRNA against human genes
Duration: 3 days
Measurement: 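Nuclei stained with Hoechst and imaged; cell-cycle phase assigned by DNA content; G2 share scaled per plate, non-targeting siRNA 0%, GMNN siRNA 100%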
Reading the numbers: G2 robust z-score and G2 cells, % of GMNN control: higher = more G2 cells, more excess DNA replication
Active means: 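Active siRNAs have a G2 robust z of 5 or more median absolute deviations over the median, which in these data means about 38% or higher of GMNN control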
The whole screen tested about 59,000 reagents; this is an unselected part. Of all reagents, about 1,550 (2.6%) were called active. 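G2 share is only a proxy for re-replication; each gene was hit by three separate siRNAs, and active genes were retested.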 Reagents against one gene are numbered here. Not all columns of the deposit are shown. Reagent sequences are not shown. The record does not give: the amount of reagent.

| Target gene | reagent no. | G2 robust z-score | G2 cells, % of GMNN control | outcome |
| --- | --- | --- | --- | --- |
| H4C6 (GeneID 8361) | 1 | 5.72 | 43.2 | active |
| H4C6 (GeneID 8361) | 2 | 0.047 | 3.3 | inactive |
| H4C6 (GeneID 8361) | 3 | 0.992 | 9.94 | inactive |
| GCA (GeneID 25801) | 1 | 0.503 | 6.51 | inactive |
| GCA (GeneID 25801) | 2 | 0.637 | 7.45 | inactive |
| GCA (GeneID 25801) | 3 | 0.856 | 8.99 | inactive |
| TNFRSF21 (GeneID 27242) | 1 | -0.247 | 1.23 | inactive |
| TNFRSF21 (GeneID 27242) | 2 | -0.439 | -0.125 | inactive |
| TNFRSF21 (GeneID 27242) | 3 | 0.122 | 3.83 | inactive |
| C2CD4C (GeneID 126567) | 1 | -0.337 | 0.599 | inactive |
| C2CD4C (GeneID 126567) | 2 | -0.0303 | 2.75 | inactive |
| C2CD4C (GeneID 126567) | 3 | 1.49 | 13.4 | inactive |
| BRAT1 (GeneID 221927) | 1 | -0.821 | -2.81 | inactive |
| BRAT1 (GeneID 221927) | 2 | -0.771 | -2.46 | inactive |
| BRAT1 (GeneID 221927) | 3 | -0.603 | -1.27 | inactive |
| PARP14 (GeneID 54625) | 1 | -0.914 | -3.46 | inactive |
| PARP14 (GeneID 54625) | 2 | -0.317 | 0.734 | inactive |
| PARP14 (GeneID 54625) | 3 | -1.11 | -4.83 | inactive |
| ZNRF3 (GeneID 84133) | 1 | 0.327 | 5.27 | inactive |
| ZNRF3 (GeneID 84133) | 2 | -0.358 | 0.445 | inactive |
| ZNRF3 (GeneID 84133) | 3 | 0.363 | 5.52 | inactive |
| SYTL5 (GeneID 94122) | 1 | 0.71 | 7.96 | inactive |
| SYTL5 (GeneID 94122) | 2 | 0.808 | 8.65 | inactive |
| SYTL5 (GeneID 94122) | 3 | 2.88 | 23.3 | inactive |
| CREBZF (GeneID 58487) | 1 | 0.304 | 5.1 | inactive |
| CREBZF (GeneID 58487) | 2 | -1.12 | -4.89 | inactive |
| CREBZF (GeneID 58487) | 3 | 2.36 | 19.6 | inactive |
| HAPLN1 (GeneID 1404) | 1 | -0.662 | -1.69 | inactive |
| HAPLN1 (GeneID 1404) | 2 | 0.623 | 7.35 | inactive |
| HAPLN1 (GeneID 1404) | 3 | 0.623 | 7.35 | inactive |
| GMPS (GeneID 8833) | 1 | -0.884 | -3.25 | inactive |
| GMPS (GeneID 8833) | 2 | 1.69 | 14.8 | inactive |
| GMPS (GeneID 8833) | 3 | -1.07 | -4.54 | inactive |
| NPHS1 (GeneID 4868) | 1 | -0.651 | -1.61 | inactive |
| NPHS1 (GeneID 4868) | 2 | -0.217 | 1.44 | inactive |
| NPHS1 (GeneID 4868) | 3 | -0.677 | -1.8 | inactive |
| RGS14 (GeneID 10636) | 1 | 1.1 | 10.7 | inactive |
| RGS14 (GeneID 10636) | 2 | -0.82 | -2.8 | inactive |
| RGS14 (GeneID 10636) | 3 | -0.816 | -2.77 | inactive |
| BGLAP (GeneID 632) | 1 | -0.627 | -1.44 | inactive |
| BGLAP (GeneID 632) | 2 | 1.98 | 16.9 | inactive |
| BGLAP (GeneID 632) | 3 | 1.13 | 10.9 | inactive |
| PRELID1 (GeneID 27166) | 1 | 0.733 | 8.12 | inactive |
| PRELID1 (GeneID 27166) | 2 | -0.198 | 1.57 | inactive |
| PRELID1 (GeneID 27166) | 3 | -0.776 | -2.49 | inactive |
| LPCAT2 (GeneID 54947) | 1 | -1.13 | -4.97 | inactive |
| LPCAT2 (GeneID 54947) | 2 | 0.272 | 4.88 | inactive |
| LPCAT2 (GeneID 54947) | 3 | 0.459 | 6.2 | inactive |
| ARID3A (GeneID 1820) | 1 | 0.625 | 7.37 | inactive |
| ARID3A (GeneID 1820) | 2 | -0.832 | -2.89 | inactive |
| ARID3A (GeneID 1820) | 3 | -0.379 | 0.301 | inactive |
| ZNF428 (GeneID 126299) | 1 | 0.422 | 5.94 | inactive |
| ZNF428 (GeneID 126299) | 2 | 0.518 | 6.61 | inactive |
| ZNF428 (GeneID 126299) | 3 | 9 | 66.3 | active |
| JCAD (GeneID 57608) | 1 | 0.185 | 4.27 | inactive |
| JCAD (GeneID 57608) | 2 | -1.2 | -5.5 | inactive |
| JCAD (GeneID 57608) | 3 | 4.38 | 33.8 | inactive |
| MAP3K9 (GeneID 4293) | 1 | -0.676 | -1.79 | inactive |
| MAP3K9 (GeneID 4293) | 2 | 0.204 | 4.4 | inactive |
| MAP3K9 (GeneID 4293) | 3 | -0.0204 | 2.82 | inactive |
| FCRL2 (GeneID 79368) | 1 | 0.5 | 6.49 | inactive |
| FCRL2 (GeneID 79368) | 2 | -0.253 | 1.19 | inactive |
| FCRL2 (GeneID 79368) | 3 | 0.98 | 9.86 | inactive |
| FBXO47 (GeneID 494188) | 1 | 1.03 | 10.2 | inactive |
| FBXO47 (GeneID 494188) | 2 | -0.187 | 1.65 | inactive |
| FBXO47 (GeneID 494188) | 3 | 0.233 | 4.61 | inactive |
| ERI1 (GeneID 90459) | 1 | 0.444 | 6.09 | inactive |
| ERI1 (GeneID 90459) | 2 | 0.229 | 4.58 | inactive |
| ERI1 (GeneID 90459) | 3 | -1.2 | -5.44 | inactive |

Limited to “G2 cells, % of GMNN control” (5 entries from above):
RGS14 (GeneID 10636) #3: -2.77
BGLAP (GeneID 632) #1: -1.44
BGLAP (GeneID 632) #2: 16.9
BGLAP (GeneID 632) #3: 10.9
PRELID1 (GeneID 27166) #1: 8.12
